PubChem BioAssay AID720505 – Drosophila RNAi Screening Center – 2013
In all, the deposit lists about 20,000 reagents; shown is a random part of those that have a named target and a result. Over the whole deposit, about 2,100 (10%) are marked active. 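Raw plate signals without normalisation; calls rest on control-based scores that were not deposited; replicate 2 separates called from uncalled poorly.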 Names joined by + are all predicted targets of the reagent. Reagent sequences are not shown. Not given: the amount of reagent, the time to read-out.

- Aim: 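Fly regulators or components of the CRAC channel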 (primary screen)
- System: Drosophila S2R+ cells
- Knock-down reagent: long dsRNA against Drosophila genes
- Treatment: thapsigargin (2 µM) in calcium-free buffer to empty internal stores, then 2 mM calcium added back
- Measurement: 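Stores emptied by 2 µM thapsigargin without calcium, then 2 mM calcium re-added; fluo-4 fluorescence followed by FLIPR in 384-well plates, per-well averaged endpoint, raw; two screen passes, some wells retested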
- Direction: calcium signal and retest calcium signal: higher = more calcium entry after store depletion
- Active means: 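Knock-downs counted as hits when calcium entry dropped relative to STIM1 positive and Rho1 negative controls present on each plate; roughly 1500 genes called, with reductions of differing size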
- Calls: active = called as lowering calcium entry; inactive = not called

target	dsRNA	calcium signal, replicate 1	calcium signal, replicate 2	retest calcium signal, replicate 1	retest calcium signal, replicate 2	call
Ir68a	DRSC10599	85.9	98.9			inactive
CG42826	DRSC10682	100	78.9			inactive
Peritrophin-15b	DRSC02266	194	148			inactive
VhaAC45RP	DRSC15423	102	153			inactive
CG4949	DRSC19926	120	89.5			inactive
CG8312	DRSC16406	157	107			inactive
bmm	DRSC10502	105	114			inactive
AttA	DRSC05926	166	163			inactive
Met75Ca + Met75Cb	DRSC11221	103	194			inactive
CG8349	DRSC03083	117	153			inactive
GluProRS	DRSC14095	133	204			inactive
pigeon	DRSC03565	129	123			inactive
FeCH	DRSC16948	117	106			inactive
CheB38c	DRSC02389	59.4	165			inactive
CG13311	DRSC09982	98.2	69.1			inactive
CG13392	DRSC02262	164	203			inactive
CG8960	DRSC08612	95.8	110			inactive
CG3909	DRSC14150	70.8	83.9			active
Acam + CG17770	DRSC14110	160	176			inactive
Acam + CG17770	DRSC15264	213	159			inactive
CG33270	DRSC10584	103	89			inactive
EMC6	DRSC14386	80.5	176			active
CG8236	DRSC16399	90	120			inactive
CG14352	DRSC00382	233	128			inactive
GNBP3	DRSC11170	93.5	82.2			inactive
Mco1	DRSC02720	159	166			inactive
Mco4	DRSC20061	100	110			inactive
Unc-115a	DRSC12749					inactive
CG14223	DRSC19580	212	84.7			inactive
ODA-Dnal1	DRSC07270	105	166			inactive
Ugt50B3	DRSC04778	72.9	91.7			active
Ugt50B3	DRSC04779	64.7	110			inactive
Ugt50B3	DRSC21419	160	85.2			inactive
nxf4	DRSC12548	151	125			inactive
CG4338	DRSC15564	109	104			inactive
CG5280	DRSC10498	121	73.2			inactive
CG5280	DRSC22835	121	95.5			inactive
Use1	DRSC10180	92.2	99.3			inactive
CR33283	DRSC22918	139	199			inactive
CG42580	DRSC20397	81.5	68.3			inactive
Obp19a	DRSC20487	101	110			inactive
CG15784	DRSC18090	99.1	73.3			inactive
Alg-2	DRSC07799	56.7	144			inactive
Fad2	DRSC11165	62.5	109			inactive
CG15404	DRSC00418	136	99.7			inactive
Smyd4-3	DRSC07041	170	158			inactive
CG32365	DRSC10040	84.6	79.4			inactive
CG32365	DRSC10041	50.5	44.6			active
CG32365	DRSC10977	66.3	55.8			inactive
dgt1	DRSC15301	119	87.1			inactive
CG30485	DRSC06376	104	200			inactive
OtopLb	DRSC00594	143	199			inactive
Cwc25	DRSC00545	141	111			inactive
Obp18a	DRSC19736	167	84.3			inactive
sw + Sdic4 + Sdic3 + 2 more	DRSC20696	145	92.9			inactive
asRNA:CR30267 + CG42260	DRSC03953	184	15916			inactive
rau	DRSC03125	122	158			inactive
SIFaR	DRSC14266	108	93.6			inactive
Lpin	DRSC07241	176	181			inactive
CG14913	DRSC02397	171	155			inactive
nht	DRSC01976	110	141	120	111	inactive
Orct	DRSC16777	198	325			inactive
kn	DRSC05505	75	113	8304	101	inactive
kn	DRSC05507	94.3	118			inactive
kn	DRSC06196	101	179			inactive
kn	DRSC07637	169	178			inactive
kn	DRSC21533	192	109			inactive
Tudor-SN	DRSC08581	112	117			inactive
CG3907	DRSC04432	104	161			inactive
uri	DRSC04111	195	90.9			inactive
Eip78C	DRSC11864	83	167			inactive
Eip78C	DRSC23097	100	121			inactive
CG11550	DRSC14326	53.9	143			active
krz	DRSC16979	91.8	112			active
CG40486	DRSC20619	178	163			inactive
CG3610	DRSC15502	119	179			inactive
CG31251	DRSC16247	151	98.3			inactive
ATPsynB	DRSC09659	52.2	65.7			active
CG15465	DRSC18048	66.7	239			active
NijA	DRSC10637	81	70			inactive
hoe1	DRSC00265	83.3	168			inactive
hoe1	DRSC00333	168	98.1			inactive
hoe1	DRSC00353	160	99.1			inactive
